# Assay results from PubChem BioAssay AID493014 (National Center for Advancing Translational Sciences (NCATS), 2011).
# Out of some 340,000 compounds screened, about 170 (0.05%) were called active. This list was built around the results that the source calls inconclusive (neither active nor inactive); the mix of calls is not that of the screen. Calls come from the whole dose curve; as a rule, active = well fitted inhibition curve with a large enough effect in the signal ratio, with a control signal flat (not every such curve was filed as active); inconclusive = small, poorly fitted or top-dose-only effect, or effect the other way, or a change in a side signal; inactive = flat fitted curve, though single readings scatter; the % refers to the signal ratio. Where the call is inconclusive, the potency comes from a doubtful curve fit.
# Assay: qHTS Assay to Find Inhibitors of Chronic Active B-Cell Receptor Signaling;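 for activity change, negative = inhibition: plate controls were basal doxycycline-induced cells for no effect and cells given 10 µM MG132 for full effect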
# Conditions: ABC-DLBCL IkBa-CBG/CBR reporter, luminescence ratio (green luciferase fused to IkBa over red control in TMD8 lymphoma cells), 4 h; activity change, negative = inhibition: at 46.1 µM (top of the series)
# In short: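 Compounds up to 46 uM were incubated four hours with TMD8 cells whose green CBG68 luciferase is fused to IkappaBalpha; red CBR luminescence normalised the signal, and concentration-effect curves were fitted to fusion, red and ratio data.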
# Potency is the fitted concentration of half-maximal effect.
SMILES,Potency,"activity change, negative = inhibition"
CCOc1ccccc1OCC(=O)OCC(=O)c1c(C)[nH]c2ccccc12,"inconclusive: 29.1 µM [falling, single point]",
O=C(CSc1nnnn1C1CCCCC1)Nc1cccc(NC(=O)c2ccco2)c1,"inconclusive: 4.11 µM [falling, full curve]",
CCN1CCN(c2nc(Nc3cc(OC)ccc3OC)nc(Nc3cc(OC)ccc3OC)n2)CC1,,inconclusive: 1.63%
Cc1nn(-c2ccc(Cl)cc2Cl)c(=O)c2ccccc12,,inconclusive: 8.47%
Cc1[nH]c2ccccc2c1SCC(=O)N1CCOCC1,,inconclusive: -12.5%
CCCc1c(C(=O)Nc2ccc(F)cc2)cnn1-c1ccccc1,,inconclusive: -4.65%
O=C(/C=C/c1ccc(Cl)c(Cl)c1)NC1=NCCS1,,inactive
CC(NCC(=O)Nc1ccccc1C(=O)NC1CC1)c1ccc(S(C)(=O)=O)cc1 (centres undefined),,inconclusive: -2.84%
Cn1c(=O)c2c(SCC(=O)N3CCOCC3)nc(-c3ccccc3Cl)nc2n(C)c1=O,,inconclusive: 29.2%
O=c1oc2ccccc2c(O)c1/C=N/c1ccccn1,"inconclusive: 10 µM [falling, partial curve]",
CC(=O)OCCc1[nH]c2ccccc2c1C,,inactive
COc1cccc(CN2CCNC(=O)C2CC(=O)N(C)CCC2CCOCC2)c1OC (centres undefined),,inconclusive: 2.36%
CCOc1ccc(NC(=O)CN(C)C(=O)c2cc(C3CC3)nn2-c2ccccc2)cc1OCC,,inconclusive: -10.7%
c1ccc(CCNc2ncnc3nc[nH]c23)cc1,,inconclusive: -21.1%
COc1ccc(NC(=O)c2cccnc2Nc2ccccc2)cc1,"inconclusive: 3.26 µM [falling, full curve]",
CCOC(=O)/C(=C\C=C\c1ccccc1)NC(=O)c1ccccc1,"inconclusive: 29.1 µM [falling, single point]",
C/C(=N/NC(=O)c1ccccc1O)c1ccc(N2C(=O)C3CCCCC3C2=O)cc1 (centres undefined),"inconclusive: 31.6 µM [falling, partial curve]",
O=C(Nc1nc(-c2ccccc2)cs1)C1CCCO1 (centres undefined),,inconclusive: -0.63%
COC(=O)c1ccccc1NC(=S)NC(NC(=O)c1ccccc1[N+](=O)[O-])C(Cl)(Cl)Cl (centres undefined),,inconclusive: -3.64%
O=C(N/C(=C\c1ccco1)C(=O)N1CCCC1CO)c1ccccc1 (centres undefined),,inactive
COC(=O)c1cc(C(=O)N2CCOCC2)cc([N+](=O)[O-])c1,,inconclusive: 16.8%
CC(=O)c1c(C)nc(-c2ccc(OCC(=O)Nc3ccccc3)cc2)n1O,,inconclusive: -17.2%
CCCN1CCc2c(sc3nc(SCC)n(-c4ccc(OC)cc4)c(=O)c23)C1,,inconclusive: 0.0052%
COc1ccc(NC(=O)Cn2c(=O)cnc3ccccc32)cc1S(=O)(=O)N1CCCCC1,,inactive
CCN(CC)S(=O)(=O)c1ccc2c(c1)N(CC(=O)NCCc1ccc(OC)c(OC)c1)C(=O)CO2,,inconclusive: 18.9%
Cc1ccc(NC(=O)NC2CC(=O)N(c3ccc4c(c3)OCCO4)C2)cc1C (centres undefined),,inconclusive: -19.9%
COc1ccc(CN(C2CCCCC2C)S(=O)(=O)c2ccc(S(=O)(=O)N(C)C)cc2)cc1OC (centres undefined),"inconclusive: 32.6 µM [rising, partial curve, poor fit]",

SMILES,Potency,"activity change, negative = inhibition"
CCOC(=O)C1=CN(Cc2cccc(F)c2)S(=O)(=O)N(CC)C1c1ccc(F)c(Cl)c1 (centres undefined),,inconclusive: -0.557%
CCCC(c1c(C)n(C)n(-c2ccccc2)c1=O)c1c(C)n(C)n(-c2ccccc2)c1=O,,inconclusive: 7.31%
N#CC(C#N)=Cc1c(N2CCN(c3ccccc3)CC2)nc2ccccn2c1=O,,inconclusive: 6.51%
CCCCN1C(=O)C(C)=C(C)C1OCCc1ccc(OC)c(OC)c1 (centres undefined),,inconclusive: -5.64%
Cn1c(=O)c2c(SCc3cccnc3)nc(C3CC3)nc2n(C)c1=O,,inconclusive: 13.7%
Cc1cc(C(=O)N/N=C/c2ccc([N+](=O)[O-])s2)n[nH]1,,inconclusive: 0.877%
O=C(NNC1=C(C(=O)C(F)(F)F)CCC1)c1ccccc1Cl,"inconclusive: 5.17 µM [falling, partial curve]",
Cc1cccc(-n2c(SCc3cc(=O)n4ccsc4n3)nc3ccccc32)c1,,inactive
O=C(Nc1ccccc1F)c1ccc2ncsc2c1,"inconclusive: 20 µM [falling, partial curve]",
S=C(NCc1ccc2[nH]c3c(c2c1)CCCC3)Nc1ccccc1,"inconclusive: 6.51 µM [cytotoxic, single point]",
O=C(/C=C/c1ccco1)NC(=S)Nc1ccccc1O,"inconclusive: 17.8 µM [falling, partial curve]",
O=C(O)/C=C\c1cn(-c2ccccc2)nc1-c1cc2ccccc2o1,,inconclusive: -22.8%
CC(=O)c1ccc(OCCCOc2cccc3cccnc23)cc1,,inconclusive: -0.777%
Cc1cccc(-n2ncc3c(N(C)C4CCCCC4)ncnc32)c1,,inconclusive: 0.793%
COC1(OC)C(/C=C/c2ccc(Cl)cc2)C(C#N)(C#N)C1(OC)OC (centres undefined),,inconclusive: 15.7%
O=C(Cc1cccc2ccccc12)NN1C(=O)CSC1=S,,inactive
Cc1ccc(-c2ccc(C(=O)Nc3cccc(F)c3)o2)c2ccccc12,,inconclusive: -1.47%
O=C(c1ccc(CS(=O)c2ccc(F)cc2)o1)N1CCN(C2CCCCC2)CC1 (centres undefined),,inactive
O=C(CN1CCOCC1)NNC(=O)c1ccc(Cl)cc1,,inconclusive: 4.83%
O=C1c2cccnc2-c2ncccc21,,inactive
Cc1ccc(C)c2[nH]c(=O)c(CN(CC3CCCO3)C(=S)NCc3ccco3)cc12 (centres undefined),,inconclusive: -16.2%
O=S(=O)(c1cccc(-c2nnc(SCc3nc4ccccc4s3)o2)c1)N1CCOCC1,,inconclusive: -18.8%
O=C(Nc1ccccc1-c1ccccc1)C1CCC1,,inconclusive: 6.64%
COc1ccccc1NC(=O)COc1ccc2ccccc2c1,"inconclusive: 22.4 µM [falling, single point]",
Cc1ccc(-c2nnc(Nc3ccc(Br)cc3)c3ccccc23)cc1S(=O)(=O)N1CCOCC1,"inconclusive: 3.16 µM [falling, full curve]",
CSCCC(NS(=O)(=O)c1ccc(Cl)cc1)C(=O)OCC(=O)c1ccc(F)cc1 (centres undefined),,inconclusive: -1.74%
COc1cc(-c2nc(-c3ccc(NC(=O)c4ccc(Br)o4)cc3)no2)cc(OC)c1OC,,inconclusive: 6.24%

SMILES,Potency,"activity change, negative = inhibition"
Cc1ccc(C23CC4CC(CC(C(=O)NC(C)C)(C4)C2)C3)cc1,,inactive
Cc1ccc(NC(=S)Nc2cccnc2)c(S(=O)(=O)N2CCCCC2)c1,,inactive
O=C(O)COc1ccccc1/C=N/NC(=O)CN1CCN(Cc2ccccc2Cl)CC1,,inconclusive: 26.7%
c1ccc(Cc2nnc(Sc3ccccc3)c3ccccc23)cc1,"inconclusive: 12.6 µM [falling, partial curve, poor fit]",
CN(CCO)c1cc(Sc2nc3ccccc3s2)c2nonc2c1[N+](=O)[O-],"inconclusive: 11.2 µM [falling, partial curve, poor fit]",
CSc1cccc(NC(=O)c2ccccn2)c1,"inconclusive: 25.1 µM [falling, partial curve]",
O=C(Nc1cccc(NC(=O)c2ccco2)c1)c1ccc2c(c1)OCCO2,,inconclusive: -12%
O=C(CN1C(=O)/C(=C\c2cccc(Cl)c2)Sc2ccccc21)NCCCN1CCOCC1,,inconclusive: 0.0886%
COc1ccc(CCNC(=O)CSc2nc3cc(Cl)ccc3o2)cc1OC,,inconclusive: -22.9%
O=C(CSc1nc2ccccc2c(=O)[nH]1)c1ccc(O)cc1O,"inconclusive: 35.5 µM [falling, single point]",
C[C@]12CC[C@@H]3c4ccc(OC(=O)c5ccccc5)cc4CC[C@H]3[C@@H]1CC[C@@H]2O,,inconclusive: 0.461%
Cc1cc(C)cc(OCC(=O)NC2=NCCS2)c1,,inconclusive: 4.65%
Cc1ccc(-c2nnc(N3CCCCC3)c3ccccc23)cc1S(=O)(=O)NCC1CCCO1 (centres undefined),,inconclusive: -25.8%
CN(CC(=O)Nc1ccc(Cl)c(C(F)(F)F)c1)C(=O)COC(=O)C1CC2CCCC(C1)C2=O (centres undefined),,inconclusive: 1.02%
O=C(NNc1nc2ccccc2o1)c1ccccc1,"inconclusive: 31.6 µM [rising, partial curve]",
Cc1ccccc1OC(=O)n1c(=S)oc2cc(Cl)ccc21,,inconclusive: -16.3%
CC1(C)C(=O)N(OCc2ccccc2)C(C)(C)C(=O)N1OCc1ccccc1,,inconclusive: -14.3%
CCCCN(C)C(=O)C1CCN(Cc2cccc(OCc3ccccc3)c2)CC1,,inactive
Cn1ccnc1Sc1ccc(/C=N/NC(=O)c2ccccc2[N+](=O)[O-])cc1[N+](=O)[O-],"inconclusive: 12.6 µM [falling, partial curve]",
COc1ccccc1-n1cnc2cc(C(=O)NCC3CCCO3)ccc21 (centres undefined),"inconclusive: 20.6 µM [falling, partial curve]",
CCOCC(=O)Nc1cc([N+](=O)[O-])ccc1OC,,inactive
COc1cc(-c2nc(-c3ccc(Br)o3)no2)cc(OC)c1OC,,inconclusive: 11.9%
CC(=O)N(Cc1ccc(F)cc1)C1=C(NCc2ccccc2)C(=O)c2ccccc2C1=O,,inconclusive: 18.3%
O=C(c1ccccc1)N1CCN(CCc2ccccc2)CC1,,inactive
COc1cc(/C=N/NC(=O)c2ccccc2O)ccc1OC(=O)CC1SC(=O)NC1=O (centres undefined),"inconclusive: 3.98 µM [rising, full curve, poor fit]",

# Copied from the results shown, 15 compounds:
SMILES,Potency,"activity change, negative = inhibition"
Cc1ccc(C)c2[nH]c(=O)c(CN(CC3CCCO3)C(=S)NCc3ccco3)cc12 (centres undefined),,inconclusive: -16.2%
O=S(=O)(c1cccc(-c2nnc(SCc3nc4ccccc4s3)o2)c1)N1CCOCC1,,inconclusive: -18.8%
O=C(Nc1ccccc1-c1ccccc1)C1CCC1,,inconclusive: 6.64%
COc1ccccc1NC(=O)COc1ccc2ccccc2c1,"inconclusive: 22.4 µM [falling, single point]",
Cc1ccc(-c2nnc(Nc3ccc(Br)cc3)c3ccccc23)cc1S(=O)(=O)N1CCOCC1,"inconclusive: 3.16 µM [falling, full curve]",
CSCCC(NS(=O)(=O)c1ccc(Cl)cc1)C(=O)OCC(=O)c1ccc(F)cc1 (centres undefined),,inconclusive: -1.74%
COc1cc(-c2nc(-c3ccc(NC(=O)c4ccc(Br)o4)cc3)no2)cc(OC)c1OC,,inconclusive: 6.24%
Cc1ccc(C23CC4CC(CC(C(=O)NC(C)C)(C4)C2)C3)cc1,,inactive
Cc1ccc(NC(=S)Nc2cccnc2)c(S(=O)(=O)N2CCCCC2)c1,,inactive
O=C(O)COc1ccccc1/C=N/NC(=O)CN1CCN(Cc2ccccc2Cl)CC1,,inconclusive: 26.7%
c1ccc(Cc2nnc(Sc3ccccc3)c3ccccc23)cc1,"inconclusive: 12.6 µM [falling, partial curve, poor fit]",
CN(CCO)c1cc(Sc2nc3ccccc3s2)c2nonc2c1[N+](=O)[O-],"inconclusive: 11.2 µM [falling, partial curve, poor fit]",
CSc1cccc(NC(=O)c2ccccn2)c1,"inconclusive: 25.1 µM [falling, partial curve]",
O=C(Nc1cccc(NC(=O)c2ccco2)c1)c1ccc2c(c1)OCCO2,,inconclusive: -12%
O=C(CN1C(=O)/C(=C\c2cccc(Cl)c2)Sc2ccccc21)NCCCN1CCOCC1,,inconclusive: 0.0886%
